Results are given in words; binding and its absence hold for the method and conditions named. For some of these results: In cells and extracts the contact can be indirect. Some results given as binding are weak or reduced against the parent protein; the word gives no strength. For some of these results: Tags and fused reporters may be left off the sequences shown.
What was measured:
Pex14p-TPA (yeast) = molecular target: T1, Pex14p-TPA (yeast) (UniProt P53112); experiment: co-IP
T1 sequence: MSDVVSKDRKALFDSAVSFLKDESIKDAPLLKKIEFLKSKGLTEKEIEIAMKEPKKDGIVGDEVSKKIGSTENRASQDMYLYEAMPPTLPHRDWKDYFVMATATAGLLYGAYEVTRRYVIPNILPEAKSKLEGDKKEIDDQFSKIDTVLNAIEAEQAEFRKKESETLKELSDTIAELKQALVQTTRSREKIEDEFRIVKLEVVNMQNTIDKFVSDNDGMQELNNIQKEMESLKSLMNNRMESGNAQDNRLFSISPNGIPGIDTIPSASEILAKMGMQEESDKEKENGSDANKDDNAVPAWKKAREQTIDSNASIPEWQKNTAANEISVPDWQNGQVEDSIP

[1] = molecular target: T2, Pex17p_(167-199) Gal4p fusion (yeast) (UniProt P40155); experiment: two-hybrid
T2 sequence: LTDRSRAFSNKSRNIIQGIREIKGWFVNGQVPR

Pex17pTPA (yeast) = molecular target: T3, Pex17pTPA (yeast) (UniProt P40155); experiment: co-IP
T3 sequence: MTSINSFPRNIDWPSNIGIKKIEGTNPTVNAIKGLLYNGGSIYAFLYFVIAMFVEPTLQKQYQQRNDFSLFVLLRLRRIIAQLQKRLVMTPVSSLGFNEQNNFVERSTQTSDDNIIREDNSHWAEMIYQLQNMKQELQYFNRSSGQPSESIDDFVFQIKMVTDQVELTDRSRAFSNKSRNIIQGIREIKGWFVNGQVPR

[2] = molecular target: T4, Pex17p_(1-167)TPA (yeast) (UniProt P40155); experiment: co-IP
T4 sequence: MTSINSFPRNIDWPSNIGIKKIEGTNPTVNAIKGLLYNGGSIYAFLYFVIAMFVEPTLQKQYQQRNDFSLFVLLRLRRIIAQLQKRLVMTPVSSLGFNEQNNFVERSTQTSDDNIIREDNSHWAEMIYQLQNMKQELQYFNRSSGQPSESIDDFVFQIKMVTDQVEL

Pex14p_(1-95) (yeast) [3] = molecular target: Pex14p_(1-95) (yeast) (UniProt P53112); experiment: cross-linking
Pex14p_(1-95) (yeast) [4] = molecular target: Pex14p_(1-95) (yeast) (UniProt P53112); experiment: native MS
Pex14p_(213-341) (yeast) [5] = molecular target: Pex14p_(213-341) (yeast) (UniProt P53112); experiment: cross-linking
Pex14p_(213-341) (yeast) [6] = molecular target: Pex14p_(213-341) (yeast) (UniProt P53112); experiment: native MS

B1: His6-Pex17p (natural protein, yeast, UniProt P40155 1-199, looked up)
chain: MTSINSFPRNIDWPSNIGIKKIEGTNPTVNAIKGLLYNGGSIYAFLYFVIAMFVEPTLQKQYQQRNDFSLFVLLRLRRIIAQLQKRLVMTPVSSLGFNEQNNFVERSTQTSDDNIIREDNSHWAEMIYQLQNMKQELQYFNRSSGQPSESIDDFVFQIKMVTDQVELTDRSRAFSNKSRNIIQGIREIKGWFVNGQVPR
Q: How did the binding (Pex14p-TPA (yeast)) turn out when B1 was run?
A: binds

B2: full-length Pex14p Gal4p fusion (protein, UniProt P53112 1-341)
chain: MSDVVSKDRKALFDSAVSFLKDESIKDAPLLKKIEFLKSKGLTEKEIEIAMKEPKKDGIVGDEVSKKIGSTENRASQDMYLYEAMPPTLPHRDWKDYFVMATATAGLLYGAYEVTRRYVIPNILPEAKSKLEGDKKEIDDQFSKIDTVLNAIEAEQAEFRKKESETLKELSDTIAELKQALVQTTRSREKIEDEFRIVKLEVVNMQNTIDKFVSDNDGMQELNNIQKEMESLKSLMNNRMESGNAQDNRLFSISPNGIPGIDTIPSASEILAKMGMQEESDKEKENGSDANKDDNAVPAWKKAREQTIDSNASIPEWQKNTAANEISVPDWQNGQVEDSIP
Q: For B2, which binding [1] is on record?
A: binds

B3: Pex13p (protein, UniProt P80667 1-386)
chain: MSSTAVPRPKPWETSASLEEPQRNAQSLSAMMTSNQQDSRPTEESNNSNSASESAPEVLPRPAALNSSGTYGESNTIPGIYGNSNYGIPYDNNPYSMNSIYGNSIGRYGYGGSYYGNNYGSFYGGGYGAGAGYGMNNGSGLGESTKATFQLIESLIGAVTGFAQMLESTYMATHNSFFTMISVAEQFGNLKEMLGSFFGIFAIMKFLKKILYRATKGRLGIPPKNFAESEGSKNKLIEDFQKFNDSGTINSNEKATRRKISWKPLLFFLMAVFGFPYLLNKFITKLQTSGTIRASQGNGSEPIDPSKLEFARALYDFVPENPEMEVALKKGDLMAILSKKDPLGRDSDWWKVRTKNGNIGYIPYNYIEIIKRRKKIEHVDDETRTH
Q: B3 was tested. Which binding (Pex17pTPA (yeast)) did it give?
A: binds

Q: And the binding [2]?
A: binds

B4: Pex14p (endogenous) (protein, UniProt P53112 1-341)
chain: MSDVVSKDRKALFDSAVSFLKDESIKDAPLLKKIEFLKSKGLTEKEIEIAMKEPKKDGIVGDEVSKKIGSTENRASQDMYLYEAMPPTLPHRDWKDYFVMATATAGLLYGAYEVTRRYVIPNILPEAKSKLEGDKKEIDDQFSKIDTVLNAIEAEQAEFRKKESETLKELSDTIAELKQALVQTTRSREKIEDEFRIVKLEVVNMQNTIDKFVSDNDGMQELNNIQKEMESLKSLMNNRMESGNAQDNRLFSISPNGIPGIDTIPSASEILAKMGMQEESDKEKENGSDANKDDNAVPAWKKAREQTIDSNASIPEWQKNTAANEISVPDWQNGQVEDSIP
Q: Which results are given for B4?
A: binding (Pex17pTPA (yeast)): binds; binding [2]: binds

B5: PTS1-receptor Pex5p (receptor, UniProt P35056 1-612)
chain: MDVGSCSVGNNPLAQLHKHTQQNKSLQFNQKNNGRLNESPLQGTNKPGISEAFISNVNAISQENMANMQRFINGEPLIDDKRRMEIGPSSGRLPPFSNVHSLQTSANPTQIKGVNDISHWSQEFQGSNSIQNRNADTGNSEKAWQRGSTTASSRFQYPNTMMNNYAYASMNSLSGSRLQSPAFMNQQQSGRSKEGVNEQEQQPWTDQFEKLEKEVSENLDINDEIEKEENVSEVEQNKPETVEKEEGVYGDQYQSDFQEVWDSIHKDAEEVLPSELVNDDLNLGEDYLKYLGGRVNGNIEYAFQSNNEYFNNPNAYKIGCLLMENGAKLSEAALAFEAAVKEKPDHVDAWLRLGLVQTQNEKELNGISALEECLKLDPKNLEAMKTLAISYINEGYDMSAFTMLDKWAETKYPEIWSRIKQQDDKFQKEKGFTHIDMNAHITKQFLQLANNLSTIDPEIQLCLGLLFYTKDDFDKTIDCFESALRVNPNDELMWNRLGASLANSNRSEEAIQAYHRALQLKPSFVRARYNLAVSSMNIGCFKEAAGYLLSVLSMHEVNTNNKKGDVGSLLNTYNDTVIETLKRVFIAMNRDDLLQEVKPGMDLKRFKGEFSF
Q: With B5 as the binder, how does the binding (Pex17pTPA (yeast)) read?
A: binds

Q: And the binding [2]?
A: binds

B6: Pex10p (protein, UniProt Q05568 1-337)
chain: MKNDNKLQKEALMRLSQLRFPFADAPSIVQAHQKDEQIQGLLIMKVTELCKLIKSQLFVNSYPKELSIFAKLLYLLFTTGRRGRTLGEEYVDLTYTNRKGTRLAGRLKMIVFAFAYPLCPYFITKLYKKIMKNNKESKIEDTESVAAFCKGLLDFILDVHMTLFYFKGAFYSISKRIFGMRYVFKHILSKNEANFREEGSQKYKVLGYILLAQNVMKWYPVLTSTLGSWIYGRKRTNDSITRSSVGLQERSEHESIEGIPKESQLTHINLSDKNQLPFIPEASRKCILCLMNMSDPSCAPCGHLFCWSCLMSWCKERPECPLCRQHCQPQEILVLRQ
Q: How did the binding (Pex17pTPA (yeast)) turn out when B6 was run?
A: binds

Q: What about the binding [2] of the same binder?
A: binds

B7: Pex12p (protein, UniProt Q04370 1-399)
chain: MSFYSNLPSAGQSSRGSSTSGRNGVGLEPLYPTIFEIMSSQEIDSLLPASIRYLLANHLVANFPNRYTLRLNKYFFEWFQAIKGFVEWYHLKTYNSTFIDRFYGLQLFSSRDRNLALTQCLNPKGQSEWPQGLQLNQQQKSVIFLEKIILPYITAKLDEILEKISMNNIFSSDETENKWPKRAFLRIYPFIKKLLALSNLLVKLLFLTKRTGSVSLLQYLFKIEYTTVRPLSSELSGLKETKGMDNRLRKTNISSIFALMQGQLSIIPRFLTFMGSQFFPTFIFVLRVYQWWTTQDMTTKLQKRVNDLDEDIPRPPFSSHSDKTEDKEGVSEACPVCEKTVQNPCVLETGYVACYPCAISYLVNNEGHCPVTNKKLLGCTYNKHTNKWEVVTGIRKLLI
Q: Which binding (Pex17pTPA (yeast)) does the source give for B7 here?
A: binds

Q: And the binding [2]?
A: binds

B8: Pex14p_(1-95) (domain or fragment, UniProt P53112 1-95)
chain: MSDVVSKDRKALFDSAVSFLKDESIKDAPLLKKIEFLKSKGLTEKEIEIAMKEPKKDGIVGDEVSKKIGSTENRASQDMYLYEAMPPTLPHRDWK
Q: For B8, which binding (Pex14p_(1-95) (yeast) [3]) is on record?
A: no binding

Q: What about the binding (Pex14p_(1-95) (yeast) [4]) of the same binder?
A: no binding

B9: Pex14p_(213-341) (domain or fragment, UniProt P53112 213-341)
chain: VSDNDGMQELNNIQKEMESLKSLMNNRMESGNAQDNRLFSISPNGIPGIDTIPSASEILAKMGMQEESDKEKENGSDANKDDNAVPAWKKAREQTIDSNASIPEWQKNTAANEISVPDWQNGQVEDSIP
Q: How did the binding (Pex14p_(213-341) (yeast) [5]) turn out when B9 was run?
A: no binding

Q: What about the binding (Pex14p_(213-341) (yeast) [6]) of the same binder?
A: no binding

Source: publication doi:10.1101/854497 (bioRxiv, 2020)
